Measurements: PubChem BioAssay AID1508615 (Milbrandt Lab, Department of Genetics, Washington …, 2020)
Among all 1,600 compounds or so, about 20 (1%) were called active.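 How the source made its calls: active means ratio of uncleaved NAD to its breakdown product ADP-ribose above 4, meaning the enzyme was inhibited; inactive means the rest.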 This is one part of the list.

Sequences of proteins named here, by UniProt entry; tags and fusion partners are left off. A change or cut given only in a name is not applied to a line headed by its entry.
UniProt Q6SZW1: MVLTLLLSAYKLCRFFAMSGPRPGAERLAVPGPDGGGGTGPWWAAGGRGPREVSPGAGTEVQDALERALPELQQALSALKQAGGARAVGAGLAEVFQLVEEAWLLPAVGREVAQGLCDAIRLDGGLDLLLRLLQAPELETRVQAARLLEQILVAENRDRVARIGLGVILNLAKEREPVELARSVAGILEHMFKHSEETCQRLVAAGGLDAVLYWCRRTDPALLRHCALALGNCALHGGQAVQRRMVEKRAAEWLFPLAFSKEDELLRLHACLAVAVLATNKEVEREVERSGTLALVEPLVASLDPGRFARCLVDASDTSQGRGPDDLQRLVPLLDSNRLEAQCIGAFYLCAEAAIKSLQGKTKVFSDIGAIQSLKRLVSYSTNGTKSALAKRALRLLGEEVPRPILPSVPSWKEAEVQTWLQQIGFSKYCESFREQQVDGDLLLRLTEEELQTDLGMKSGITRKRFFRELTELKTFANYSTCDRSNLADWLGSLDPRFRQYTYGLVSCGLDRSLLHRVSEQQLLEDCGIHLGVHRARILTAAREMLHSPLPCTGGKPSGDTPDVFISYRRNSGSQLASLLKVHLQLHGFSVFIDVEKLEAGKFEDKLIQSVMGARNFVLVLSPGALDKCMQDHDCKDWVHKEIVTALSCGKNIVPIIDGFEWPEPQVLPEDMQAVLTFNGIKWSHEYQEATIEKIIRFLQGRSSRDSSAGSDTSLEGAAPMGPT

These compounds were tested against NAD(+) hydrolase SARM1 (Homo sapiens) (UniProt Q6SZW1) (assay: SARM1 TIR NADase inhibitors by HPLC, primary screen, cell lysate, HPLC readout (AID 1508615;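 further: substrate NAD at 5 µM with 60 min at 37 °C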)). Conditions: HEK293T SAM-TIR lysate, at 5 µM, active compounds read high.

NAD/ADPR ratio, inactive:
c1ccc(-c2ccc(-c3nccc4ccccc34)[nH]2)cc1 3
N#CC1C=Cc2c(ccc3ccccc23)N1C(=O)c1ccccc1 (stereo unspecified) 3
COc1ccc(CN2CCOC2=O)cc1OC 3
ONC(=NCc1ccccc1)c1ccccc1 3
CS/C(=C\c1ccc(C(=O)c2ccc(C)cc2)n1C)S(C)=O (stereo unspecified) 3
Cc1cc(=O)oc2cc(OS(C)(=O)=O)ccc12 3
Cc1ccc(C(C)C)cc1NC(=O)Nc1ccc([N+](=O)[O-])cc1 3
c1ccc(-c2ccc3c(c2)NCCN3)cc1 3
O=c1oc(-c2ccccc2)c(-c2ccccc2)c2ccccc12 3
O=C(Oc1ccccc1)c1cccc2cccc(C(=O)Oc3ccccc3)c12 3
O=C(NC1CCCCC1)c1cc2ccccc2cc1O 3
CSc1cccc(NC(=O)Nc2nc3c(C)cccc3s2)c1 3
Nc1nc(N)c2cc(Sc3ccc4ccccc4c3)ccc2n1 3
Clc1ccc(-c2c(C3=NCCCN3)nnn2-c2ccc(Cl)cc2)cc1 3
CCOC(=O)c1c(NC(=S)NC)sc2c1CCCC2 3
CCOC(=O)C1=C(Nc2ccc(OC)cc2)C(N)=NC1=N 3
COC1=C[C@@H](C)[C@@H]2C[C@H]3OC(O)C[C@H]4C(C)=C(OC)C(=O)[C@H]([C@@]2(C)C1=O)[C@@]34C (stereo partly specified) 3
N#CCc1cnc2ccccc2n1 3
O=C(Nc1cccnc1)c1cccc([N+](=O)[O-])c1 3
O=C(c1ccc(Cl)nc1)c1cccs1 3
c1ccc2[nH]c(-c3ccncc3)nc2c1 3
O=c1ccc(Cl)n[nH]1 3
Cc1cc(C)n(C(N)=NC(=O)c2ccc([N+](=O)[O-])cc2)n1 3
Cc1ccc(-c2nc(-c3nccc4ccccc34)oc2-c2ccccc2)cc1 3
S=c1nc[nH]c2c1ncn2C1CCCC1 3
Cc1n[nH]c2c([N+](=O)[O-])c(=O)[nH]c(=O)n12 3
Cc1ccc([N+](=O)[O-])cc1NC(=O)Nc1ccc(S(N)(=O)=O)cc1 3
COc1cccc(OCC(O)CN2CCN(c3ccccc3)CC2)c1 (stereo unspecified) 3
CCOC(=O)Cc1cc(=O)[nH]n(-c2ccccc2)c1=O 3
Cc1ccc(C#CC(C)(O)C(C)(C)C)cn1 (stereo unspecified) 3
O=C(Nc1nc2ccccc2s1)Nc1ccc([N+](=O)[O-])cc1Cl 3
COc1cc2c(c(OC)c1O)C(=O)CO2 3
COc1ccc(C2OC3=C(Nc4cc(C)c(C)cc4N3)C2=O)cc1 (stereo unspecified) 3
OCC(O)C1OCOC(C(O)CO)C1O (stereo unspecified) 3
CO[C@@]12[C@H](COC(N)=O)C3=C(C(=O)C(C)=C(N)C3=O)N1C[C@@H]1N[C@@H]12 3
c1ccc(-c2nn(-c3ccccc3)[n+](-c3ccccc3)n2)cc1 3
COc1cc(Cl)c(CC(=O)c2c[nH]c3ccccc23)cc1OC 3
Nc1ccc(C(=O)Nc2cccc(N)c2)cc1 3
O=C(COc1ccc([N+](=O)[O-])cc1Cl)N1CCOCC1 3
C#CC(c1ccccc1)(c1ccccc1)n1ccnc1 3
Clc1ccc(-c2nc(-c3cc4cc(Cl)ccc4o3)cs2)cc1 3
CCCCC[C@H](O)/C=C/[C@@H]1[C@@H](C/C=C\CCCC(=O)O)[C@@H](O)C[C@H]1O 3
COc1cccc(NC(=S)Nc2ccc(O)cc2)c1 3
CC1CC(C)(C)C2=NCCN21 (stereo unspecified) 3
CC1=NN(c2ccccc2)C(=O)C1N=Nc1ccc(S(N)(=O)=O)cc1 (stereo unspecified) 3
O=C1CCC(c2ccccc2)(c2ccccc2)CC1 3
Cc1ccn2c(C(C)O)nnc2c1 (stereo unspecified) 3
O=C(O)CCC(=O)c1ccc2ccc3cccc4ccc1c2c34 3
Nc1ccc(C(=O)Nc2ccc(Nc3ccncc3)cc2)cc1 3
O=[N+]([O-])c1c(N2CCN(CCO)CC2)nc2ccccn12 3
c1ccc(-n2ncc3cccnc32)cc1 3
CCC(C)NC(=O)CC(C)C (stereo unspecified) 3
CC(/C=C1\NC(=S)NC1=O)=C\c1ccccc1 3
CCCN(CCC)CC(=O)N1CC(=O)Nc2ccccc21 3
Cc1ccnc(NC(c2ccccc2)c2ccc3cccnc3c2O)c1 (stereo unspecified) 3
O=c1[nH]c(=S)c2ncn(-c3ccccc3)c2[nH]1 3
COc1ccc(-c2cc3ccccc3[nH]2)cc1 3
Nc1ccnn1-c1ccccc1 3
O=C(O)Cc1sc(=O)[nH]c1O 3
O=C1C(=Nc2cccc(Cl)c2)CC(c2ccc(Cl)cc2)N1c1cccc(Cl)c1 (stereo unspecified) 3
Cc1ccc(S(=O)(=O)CCOC(=O)CNC(=O)OCc2ccccc2)cc1 3
CCOC(=O)C(=CNc1ccccc1Cl)C(=O)OCC 3
Cc1nc2ccc(N)nc2nc1C 3
COc1ccc(OCC(O)CN2CCN(c3ccc(Cl)cc3)CC2)cc1 (stereo unspecified) 3
C=C1SC(=Nc2c(C)cccc2Cl)N(C(=O)c2sc3ccccc3c2Cl)C12CCCCC2 3
COc1c(NC=O)c2c(c([N+](=O)[O-])c1OC)C(=O)OC2 3

For convenience, 21 of the compounds above:
NAD/ADPR ratio, inactive:
Cc1ccc(-c2nc(-c3nccc4ccccc34)oc2-c2ccccc2)cc1 3
S=c1nc[nH]c2c1ncn2C1CCCC1 3
Cc1n[nH]c2c([N+](=O)[O-])c(=O)[nH]c(=O)n12 3
Cc1ccc([N+](=O)[O-])cc1NC(=O)Nc1ccc(S(N)(=O)=O)cc1 3
COc1cccc(OCC(O)CN2CCN(c3ccccc3)CC2)c1 (stereo unspecified) 3
CCOC(=O)Cc1cc(=O)[nH]n(-c2ccccc2)c1=O 3
Cc1ccc(C#CC(C)(O)C(C)(C)C)cn1 (stereo unspecified) 3
O=C(Nc1nc2ccccc2s1)Nc1ccc([N+](=O)[O-])cc1Cl 3
COc1cc2c(c(OC)c1O)C(=O)CO2 3
COc1ccc(C2OC3=C(Nc4cc(C)c(C)cc4N3)C2=O)cc1 (stereo unspecified) 3
OCC(O)C1OCOC(C(O)CO)C1O (stereo unspecified) 3
CO[C@@]12[C@H](COC(N)=O)C3=C(C(=O)C(C)=C(N)C3=O)N1C[C@@H]1N[C@@H]12 3
c1ccc(-c2nn(-c3ccccc3)[n+](-c3ccccc3)n2)cc1 3
COc1cc(Cl)c(CC(=O)c2c[nH]c3ccccc23)cc1OC 3
Nc1ccc(C(=O)Nc2cccc(N)c2)cc1 3
O=C(COc1ccc([N+](=O)[O-])cc1Cl)N1CCOCC1 3
C#CC(c1ccccc1)(c1ccccc1)n1ccnc1 3
Clc1ccc(-c2nc(-c3cc4cc(Cl)ccc4o3)cs2)cc1 3
CCCCC[C@H](O)/C=C/[C@@H]1[C@@H](C/C=C\CCCC(=O)O)[C@@H](O)C[C@H]1O 3
COc1cccc(NC(=S)Nc2ccc(O)cc2)c1 3
CC1CC(C)(C)C2=NCCN21 (stereo unspecified) 3
